Test [1] has as its target Tay.2-Flag (1030 amino acid C-terminal fragment of Tay, C-terminal 3XFlag) (Drosophila melanogaster). In words: co-IP; protein extracts of Drosophila embryos (da-Gal4 driven co-expression), 2 mg total protein, IP buffer with 200 mM NaCl, 1% NP-40, 0.1% SDS, 0.5% DOC; anti-FlagM2 agarose, 4°C for 12-16 h; blots with anti-Myc or anti-HA.
In test [2] the target is Tay.FL-Flag (full-length Tay bridge, C-terminal 3XFlag) (Drosophila melanogaster) (UniProt Q9VXM5). The test is described as above.

No constants are given. Whether binding was seen depends on the method and setting. Binding seen in cells or lysates may run through a third protein. For some assays here: Binding calls can cover weak binding; strength is not graded here. Sequences can lack the tags named with a protein.

Data on one molecule can be found in PMC3861119.

B1: Mkp3-Myc (enzyme, UniProt Q9VVW5 1-411)
chain: MPETEHETCSKEWLQSQLRSLDSKDLILLDCRGSHEYSESHIRGAVNLCIPSIVLRRLAVGKIDLASTIKSPELKQRIQSGYKLCWFILYNGEGVPGQNQEIAGAGSLAVAMDSIISILHRRLKQDGCRVVALQDGFNNFRQAFPEWCEDDNQTHSKEIESSRNVQTDQLMGLRSLRISTTQSDSACSSSAESSDCESSSHHHHHHSHHNYNEAPVEIIPGLLFLGNATHSCDSEALKKYNIKYVLNVTPDLPNKFKESGDIKYLQIPITDHYSQDLAIHFPDAIQFIEEARSASSVVLVHCLAGVSRSVTVTLAYLMHTRGLSLNDAFAMVRDRKPDVSPNFHFMQQLLSFESQLRLRPGSRFSCSCIAPDCNCMQTTGFMATHLANATGVSPDSGIEFDRWTPSDTGLK
On to B1, for which the binding entry in test [1] was “no binding”; in test [2] it was “binds”.
